This note sets out measurements from article doi:10.1101/2021.09.06.459189.

Chains of the proteins cited; added tags and fusions are not shown.
UniProt P29311: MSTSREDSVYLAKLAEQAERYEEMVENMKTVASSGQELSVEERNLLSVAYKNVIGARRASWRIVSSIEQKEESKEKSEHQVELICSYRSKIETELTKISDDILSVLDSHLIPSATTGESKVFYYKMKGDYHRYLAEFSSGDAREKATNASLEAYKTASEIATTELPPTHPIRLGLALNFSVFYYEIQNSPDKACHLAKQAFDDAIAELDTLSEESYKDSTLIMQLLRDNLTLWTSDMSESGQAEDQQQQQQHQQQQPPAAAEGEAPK

These are yes or no findings as the source states them, for the method shown. In cells and extracts the contact can be indirect. These calls come from enrichment with a bait or labelling near it, and not all partners need be listed.

In this experiment the target is Bmh1-GFP (S. cerevisiae) (UniProt P29311). Nature of the experiment: affinity purification with mass spectrometry.

B1: Pes4 (protein, UniProt P39684 1-611)
chain: MYSISNKKPSILSMVPLNILKNQDLKVKKDQEKKISFNPVVTPIRPDDYHEKTSRSSSSSHSDSPEFLRINNNKSGHKNGKLKSFESKKLVPLFIGDLHETVTEETLKGIFKKYPSFVSAKVCLDSVTKKSLGHGYLNFEDKEEAEKAMEELNYTKVNGKEIRIMPSLRNTTFRKNFGTNVFFSNLPLNNPLLTTRVFYDTFSRYGKILSCKLDSRKDIGFVYFEDEKTARNVIKMYNNTSFFGKKILCGIHFDKEVRSVPNFETQKSRLDAETIIEKEQSLNEKHSKGNDKESKNIYSSSQNSIFIKNLPTITTRDDILNFFSEVGPIKSIYLSNATKVKYLWAFVTYKNSSDSEKAIKRYNNFYFRGKKLLVTRAQDKEERAKFIESQKISTLFLENLSAVCNKEFLKYLCHQENIRPFKIQIDGYDENSSTYSGFIKFRNFEDATRIFNFLNNRLVGGSIVTTSWERQNNAPKYHDGYGMRNIHTSSHPQITPYYQYSHANSLNSPHMRDLSSMNSSTRSLIKNKNFNKKVLETFEKQVRRGIDFMRFPSATRDENVHGIAEYIFDTYWNRDVLILDKFLSLLNSSPYHEGVLQKQIEEAASSLGFKR
For the molecule B1, the binding result was “binds”.
